In patent publication US20110098223A1, “USE OF THE PAT NANOPEPTIDE IN THE TREATMENT OF AUTOIMMUNE DISEASES” (priority 2008, published 2011):
Part of at least one peptide drawing is inferred or uncertain, most often the ends. Where no end group is shown, it is not given here.

Tests used:
Assay type in all cases: in vivo
IL-6 = IL-6 expression in colon by quantitative RT-PCR, TNBS colitis mice; details: paragraph on IL-6; 25 μg of PAT per mouse; TNBS alone increases IL-6 around 30 fold; FIG. 3
Rats of OFA (SD) strain = assay: Arthritis induced by Freund's adjuvant (Mycobacterium butyricum) in the rat; details: for clinical macroscopic score: FIG. 5
Experimental: We used the model of arthritis induced by Freund' adjuvant as described in the article of Milan et al., J Neurosci 1986; 6: 899-906. The rats are administered with Mycobacterium butyricum develop usually a severe polyarthritis which resembles to that in human. Rats of OFA (SD) strain (Oncins France Strain A) weighing approximately 200 g received an […] of a 10 mg/ml Mycobacterium butyricum solution at the articulation of the right ankle. For all the measured parameters, the rats were divided into 5 groups (8 rats/group) in the following way: • reference group: the rats received a paraffin injection instead of the solution of Mycobacterium butyricum (no induced arthritis) then receive an intraperitoneal injection of saline solution; • arthritic group+injection of saline solution; • arthritic group+intraperitoneal injection of 3 mg/kg indomethacin; the indomethacin being a NSAID classically used as reference in this kind of test; • arthritic group+intraperitoneal injection of […]; • arthritic group+intraperitoneal injection of […]. The products are administered 5 times per week during 3 weeks. At the beginning of the experimentation (day 0), one determines the initial values for the different parameters (volume of the leg, macroscopic clinical score, sedimentation test and hypersensitivity). During the experiment, several parameters are measured: • the volume of the leg (“paw latency duration”); • the globular sedimentation test (“Erythrocyte Sedimentation rate”); • the macroscopic score: • “0” means that no sign of arthritis was detected; • “1” means that a swelling or an inflammation was detected on a leg; • “2” means that a swelling or an inflammation was detected on two legs; • “3” means that a swelling or an inflammation was detected on at lest 3 legs; • “4” means that a swelling or an inflammation was detected on the 4 legs. • hypersensitivity according to the plantar test: carried out according to Yukinori Nagakura and al, Allodynia and hyperalgesia in adjuvant-induced arthritic rats: time course of progression and efficacy of analgesics, JPET 306: 490-497, 2003, or in Andersen M L and al “Evaluation of acute and chronic treatments with Harpagophytum procumbens one Freund's adjuvant-induced arthritis in rats”. J. Ethnopharmacol. 2004 April; 91 (2-3): 325-30; • the erythrocyte sedimentation rate (ESR): the increase in this one generally accompanies the clinical symptoms met in induced arthritis. The ESR is measured in the arthritic rats (at Day 21) 1 hour and 2 hours after the injection of PAT or indomethacin, according to the protocol of Mahajan S G, et al., Protective Effect of Ethanolic Extract of Seeds of Moringa will oleifera Lam. Against Inflammation Associated with Development of Arthritis in Rats. J. Immunotoxicol. 2007 January; 4 (1): 39-47.

IL-10 = IL-10 expression in colon by quantitative RT-PCR, TNBS colitis mice; details: 25 μg/mouse administered before TNBS; FIG. 3
C57BL/6J mice = assay: TNBS-induced colitis in mice (model of Crohn's disease): animal weight, colon inflammation; details: for animal weight (weight loss induced by TNBS): FIG. 1; for colon inflammation caused by TNBS rectal injection: FIG. 2
TNF-α = TNF-α expression in colon by quantitative RT-PCR, TNBS colitis mice; details: 25 μg/mouse; TNBS alone increases around 4 fold; FIG. 3

## EAKSQGGSD-NH2 [PAT nonapeptide, EAKSQGGSD]
IL-6
  IL-1β expression: decreases to a significant extent
Rats of OFA (SD) strain; 0.4 μg/kg (i.p)
  progression of arthritis: reduce very significantly
Rats of OFA (SD) strain; 0.4 μg/kg (i.p.), a dose 7500 fold lower
  efficacy compared to indomethacin 3 mg/kg: at least a similar efficacy
Rats of OFA (SD) strain; 0.4 μg/kg, measured 1 hour after the injection, compared to the indomethacin group, FIG. 7
  erythrocyte sedimentation rate (ESR): more reduced ESR
Rats of OFA (SD) strain; 4 μg/kg intraperitoneally compared with 0.4 μg/kg
  clinical macroscopic score: shows less effects
Rats of OFA (SD) strain; 4 μg/kg, FIG. 7
  reduction of ESR: did not have a significant effect
Rats of OFA (SD) strain; 0.4 versus 4 μg/kg, FIG. 4
  dose response on volume of the leg: the same effect at the two doses
Rats of OFA (SD) strain; Day 16, PAT at the 2 doses, indomethacin, equivalent to the non-arthritic reference group, FIG. 6
  hypersensitivity measured by the plantar test: very reduced
Rats of OFA (SD) strain; arthritic rats, Day 21, FIG. 7
  erythrocyte sedimentation rate (ESR): reduced in a very important way
Rats of OFA (SD) strain; compared to arthritic rats which received saline solution, until Day 21
  clinical macroscopic score: significant reduction
Rats of OFA (SD) strain; during the first 12 days, PAT 0.4 and 4 μg/kg i.p., indomethacin 3 mg/kg i.p., 5 times per week, FIG. 4
  volume of the leg: do not have a notable effect
Rats of OFA (SD) strain; from Day 14 until Day 21, PAT 0.4 and 4 μg/kg i.p., indomethacin 3 mg/kg i.p., FIG. 4
  inflammation and volume of the leg: notable reduction
IL-10
  increase of IL-10 anti-inflammatory cytokine: more than 3 fold
C57BL/6J mice; 1 μg/mouse intraperitoneal 30 minutes before TNBS
  animal weight (weight loss induced by TNBS): do not show a significant effect
C57BL/6J mice; 5 μg/mouse intraperitoneal 30 minutes before TNBS
  animal weight (weight loss induced by TNBS): do not show a significant effect
C57BL/6J mice; 25 μg/mouse intraperitoneal 30 minutes before TNBS
  animal weight (weight loss induced by TNBS): allows to limit this weight loss
C57BL/6J mice; 25 μg/mouse
  colon inflammation caused by TNBS rectal injection: maximal effect
C57BL/6J mice; 1, 5, 25 μg/mouse intraperitoneal, effect dose dependant
  colon inflammation caused by TNBS rectal injection: reduce to a significant extent inflammation
C57BL/6J mice; TBNS-PAT treated mice (control mice 7 cm, TNBS-treated mice 5 cm)
  colon length, on average: 6.5 cm
TNF-α
  TNF-α expression: the increase is notably reduced
